Reference: PubChem BioAssay AID652243 (Drosophila RNAi Screening Center, 2013)
The screen tested about 24,000 reagents; this is a random part of those that have a named target and a result. In the full data, 246 (1%) are marked active. 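Plates not normalised; calls are printed but the firefly/Renilla ratio behind them is not deposited; fold cut for lowering reported inconsistently.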 The raw values are shown without normalisation. The record does not give: the amount of reagent.

- Test: 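Fly genes required for human androgen receptor driven transcription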 (primary screen)
- System: Drosophila S2R+ cells
- Knock-down reagent: long dsRNA against Drosophila genes
- Timing: 72 h (48 h, then 24 h hormone)
- Treatment: synthetic androgen R1881 at 10 nM for 24 h
- Measured: 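Per-well raw luminescence of the androgen-driven firefly reporter and of the Renilla control, two replicates each, without normalisation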
- Scale: firefly reporter light: higher = more light from androgen-responsive reporter; Renilla control light: higher = more constitutive control signal (cell number, transfection)
- Active means: 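Hit when the log firefly-to-Renilla ratio dropped or increased by a fixed fold versus the mean of GFP or LacZ controls across duplicate plates; lowering cut given as 1.5 and as 3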
- Meaning of the calls: active = hit: reporter lowered or raised; inactive = no hit

Which result is listed for Ir93a [DRSC15212]?
firefly reporter light, replicate 1: 58776; firefly reporter light, replicate 2: 70913; Renilla control light, replicate 1: 5.58e5; Renilla control light, replicate 2: 5.87e5; outcome: inactive

For Ir93a [DRSC15213], how do the results read?
firefly reporter light, replicate 1: 2.56e5; firefly reporter light, replicate 2: 3.15e5; Renilla control light, replicate 1: 3.00e6; Renilla control light, replicate 2: 3.53e6; outcome: inactive

For Ir93a [DRSC28149], how do the results read?
firefly reporter light, replicate 1: 7.54e5; firefly reporter light, replicate 2: 5.08e5; Renilla control light, replicate 1: 1.45e6; Renilla control light, replicate 2: 1.23e6; outcome: inactive

Which result is listed for Atg5 [DRSC18112]?
firefly reporter light, replicate 1: 1.15e5; firefly reporter light, replicate 2: 1.24e5; Renilla control light, replicate 1: 9.43e5; Renilla control light, replicate 2: 5.51e5; outcome: inactive

What is on record for CG8441 [DRSC07180]?
firefly reporter light, replicate 1: 9.26e5; firefly reporter light, replicate 2: 7.68e5; Renilla control light, replicate 1: 2.03e6; Renilla control light, replicate 2: 1.54e6; outcome: inactive

Which result is listed for CG31872 [DRSC02568]?
firefly reporter light, replicate 1: 1.08e5; firefly reporter light, replicate 2: 2.18e5; Renilla control light, replicate 1: 6.46e5; Renilla control light, replicate 2: 8.52e5; outcome: inactive

With CG31872 [DRSC02572], how do the results read?
firefly reporter light, replicate 1: 3.89e5; firefly reporter light, replicate 2: 4.88e5; Renilla control light, replicate 1: 1.94e6; Renilla control light, replicate 2: 2.19e6; outcome: inactive

For AP-1gamma [DRSC18433], how do the results read?
firefly reporter light, replicate 1: 1.82e5; firefly reporter light, replicate 2: 2.41e5; Renilla control light, replicate 1: 2.29e6; Renilla control light, replicate 2: 2.86e6; outcome: inactive

What did the screen give for Etfb [DRSC16324]?
firefly reporter light, replicate 1: 85505; firefly reporter light, replicate 2: 1.18e5; Renilla control light, replicate 1: 1.13e6; Renilla control light, replicate 2: 8.61e5; outcome: inactive

How did the screen score grh [DRSC05680]?
firefly reporter light, replicate 1: 1.58e5; firefly reporter light, replicate 2: 98197; Renilla control light, replicate 1: 1.97e5; Renilla control light, replicate 2: 1.71e5; outcome: inactive

For grh [DRSC05683], what was measured?
firefly reporter light, replicate 1: 24871; firefly reporter light, replicate 2: 74199; Renilla control light, replicate 1: 1.15e5; Renilla control light, replicate 2: 1.65e5; outcome: inactive

For grh [DRSC07624], what does the deposit list?
firefly reporter light, replicate 1: 5.41e5; firefly reporter light, replicate 2: 4.35e5; Renilla control light, replicate 1: 4.75e5; Renilla control light, replicate 2: 4.27e5; outcome: inactive

For grh [DRSC07625], what does the deposit list?
firefly reporter light, replicate 1: 1.03e5; firefly reporter light, replicate 2: 1.26e5; Renilla control light, replicate 1: 1.28e6; Renilla control light, replicate 2: 1.28e6; outcome: inactive

For grh [DRSC25041], what does the deposit list?
firefly reporter light, replicate 1: 4.67e5; firefly reporter light, replicate 2: 5.52e5; Renilla control light, replicate 1: 6.75e5; Renilla control light, replicate 2: 7.51e5; outcome: inactive

What is on record for grh [DRSC39163]?
firefly reporter light, replicate 1: 9.13e5; firefly reporter light, replicate 2: 7.82e5; Renilla control light, replicate 1: 1.34e6; Renilla control light, replicate 2: 1.05e6; outcome: inactive

Which result is listed for GluClalpha [DRSC16680]?
firefly reporter light, replicate 1: 2.33e5; firefly reporter light, replicate 2: 2.50e5; Renilla control light, replicate 1: 2.54e6; Renilla control light, replicate 2: 3.51e6; outcome: inactive

With Art8 [DRSC02530], what was measured?
firefly reporter light, replicate 1: 2.16e5; firefly reporter light, replicate 2: 2.63e5; Renilla control light, replicate 1: 1.53e6; Renilla control light, replicate 2: 1.63e6; outcome: inactive

With spg [DRSC14373], what does the deposit list?
firefly reporter light, replicate 1: 2.35e5; firefly reporter light, replicate 2: 2.41e5; Renilla control light, replicate 1: 2.38e6; Renilla control light, replicate 2: 3.06e6; outcome: inactive

With spg [DRSC14881], what was measured?
firefly reporter light, replicate 1: 2.15e5; firefly reporter light, replicate 2: 2.64e5; Renilla control light, replicate 1: 2.95e6; Renilla control light, replicate 2: 3.07e6; outcome: inactive

With Sod3 [DRSC07324], what was measured?
firefly reporter light, replicate 1: 6.97e5; firefly reporter light, replicate 2: 7.64e5; Renilla control light, replicate 1: 2.68e6; Renilla control light, replicate 2: 2.11e6; outcome: inactive

For Sod3 [DRSC26222], what was measured?
firefly reporter light, replicate 1: 2.73e5; firefly reporter light, replicate 2: 2.60e5; Renilla control light, replicate 1: 6.69e5; Renilla control light, replicate 2: 5.13e5; outcome: inactive

Part of the list above, set out differently:
| predicted target | amplicon | firefly reporter light, replicate 1 | firefly reporter light, replicate 2 | Renilla control light, replicate 1 | Renilla control light, replicate 2 | outcome |
| --- | --- | --- | --- | --- | --- | --- |
| AP-1gamma | DRSC18433 | 1.82e5 | 2.41e5 | 2.29e6 | 2.86e6 | inactive |
| Etfb | DRSC16324 | 85505 | 1.18e5 | 1.13e6 | 8.61e5 | inactive |
| grh | DRSC05680 | 1.58e5 | 98197 | 1.97e5 | 1.71e5 | inactive |
